# Reference: the supplement of paper PMC6331611
# ± gives the standard deviation of the averaged measurements. The full ranking holds about 1,600 compounds; the median of “normalized intracellular growth (luminescence, IQM-normalized) in RAW264.7 macrophages” is about 1, and the lowest 2% start at about 0.43. The list shows a part of the results.
# Test system: Salmonella enterica serovar Typhimurium SL1344
# Test: normalized intracellular growth (luminescence, IQM-normalized) in RAW264.7 macrophages (fraction of plate interquartile mean); higher = more bacterial growth (less inhibition)
# Settings: 10 µM
Structure (SMILES),normalized intracellular growth (time point: T3 (3 h)),normalized intracellular growth (time point: Tfinal (~6 h))
CCCc1cc(=O)[nH]c(=S)[nH]1,0.99 ± 0.023,0.917 ± 0.3
COc1ccc(CCN(C)CCCC(C#N)(c2ccc(OC)c(OC)c2)C(C)C)cc1OC (stereo unspecified),0.973 ± 0.015,1.15 ± 0.084
CO/N=C(\C(=O)N[C@@H]1C(=O)N2C(C(=O)OCOC(=O)C(C)(C)C)=C(/C=C\c3scnc3C)CS[C@H]12)c1csc(N)n1,0.923 ± 0.047,0.0689 ± 0.074
CN(N=O)C(=O)N[C@H]1C(O)O[C@H](CO)[C@@H](O)[C@@H]1O (mixture of isomers),1.02 ± 0.08,1.02 ± 0.1
Oc1ncnc2[nH]ncc12,0.995 ± 0.024,1.07 ± 0.1
CNCCCC1c2ccccc2C=Cc2ccccc21,0.961 ± 0.051,1.12 ± 0.42
CCOC(=O)C1=C[C@@H](OC(CC)CC)[C@H](NC(C)=O)[C@@H](N)C1,1.01 ± 0.021,1.33 ± 0.15
C[C@]12CCC(=O)C=C1CC[C@@H]1[C@@H]2[C@@H](O)C[C@@]2(C)[C@H]1CC[C@]2(O)C(=O)CO,1.03 ± 0.02,0.987 ± 0.039
CN[C@@H]1[C@H](O[C@H]2[C@H](O[C@H]3[C@H](O)[C@@H](O)[C@H](N=C(N)N)[C@@H](O)[C@@H]3N=C(N)N)O[C@@H](C)[C@]2(O)C=O)O[C@@H](CO)[C@H](O)[C@H]1O,0.962 ± 0.035,1 ± 0.049
Cc1ccc2c(Br)cc(Br)c(OC(=O)c3ccccc3)c2n1,0.944 ± 0.025,1.01 ± 0.097
Cc1cccc(C(=O)O)c1O,1.02 ± 0.085,0.949 ± 0.16
OCCOCCN1CCN(C2=Nc3ccccc3Sc3ccccc32)CC1,0.961 ± 0.03,1.03 ± 0.14
CC1(C)S[C@@H]2[C@H](NC(=O)[C@H](N)c3ccc(O)cc3)C(=O)N2[C@H]1C(=O)O,0.977 ± 0.028,0.937 ± 0.094
COc1cccc2c1C(=O)c1c(O)c3c(c(O)c1C2=O)C[C@@](O)(C(=O)CO)C[C@@H]3O[C@H]1C[C@H](N)[C@H](O)[C@H](C)O1,1.06 ± 0.09,1.17 ± 0.16
CCCCC(=O)O[C@H]1CC[C@H]2[C@@H]3CCc4cc(O)ccc4[C@H]3CC[C@]12C,1.19 ± 0.18,1.28 ± 0.099
O=C(OC[C@H]1O[C@@H](OC(=O)c2cc(O)c(O)c(OC(=O)c3cc(O)c(O)c(O)c3)c2)[C@H](OC(=O)c2cc(O)c(O)c(OC(=O)c3cc(O)c(O)c(O)c3)c2)[C@@H](OC(=O)c2cc(O)c(O)c(OC(=O)c3cc(O)c(O)c(O)c3)c2)[C@@H]1OC(=O)c1cc(O)c(O)c(OC(=O)c2cc(O)c(O)c(O)c2)c1)c1cc(O)c(O)c(OC(=O)c2cc(O)c(O)c(O)c2)c1,1.07 ± 0.076,1.04 ± 0.059
Fc1ccc(C(c2ccc(F)cc2)N2CCN(C/C=C/c3ccccc3)CC2)cc1,1.21 ± 0.077,1.41 ± 0.075
CN1CCc2c(c3ccccc3n2Cc2ccccc2)C1,0.974 ± 0.023,1.69 ± 0.3
Cc1ccc(Nc2c(F)cccc2Cl)c(CC(=O)O)c1,0.777 ± 0.075,0.981 ± 0.061
Cc1oncc1C(=O)Nc1ccc(C(F)(F)F)cc1,0.987 ± 0.052,0.73 ± 0.24
O=C(O)c1cccnc1Nc1cccc(C(F)(F)F)c1,0.961 ± 0.044,1.08 ± 0.055
CC(CCc1ccccc1)NCC(O)c1ccc(O)c(C(N)=O)c1 (stereo unspecified),1.1 ± 0.07,1.08 ± 0.3
CCOC(=O)[C@H](CCc1ccccc1)N[C@@H](C)C(=O)N1Cc2ccccc2C[C@H]1C(=O)O,0.989 ± 0.028,0.958 ± 0.042
Cc1onc(-c2c(Cl)cccc2Cl)c1C(=O)N[C@@H]1C(=O)N2[C@@H]1SC(C)(C)[C@@H]2C(=O)O,1.03 ± 0.048,1.04 ± 0.046
CN1C(C)(C)CCCC1(C)C,1.02 ± 0.025,0.824 ± 0.14
C[N+](C)(C)CCCCCC[N+](C)(C)C,1.04 ± 0.016,0.887 ± 0.077

Structure (SMILES),normalized intracellular growth (time point: T3 (3 h)),normalized intracellular growth (time point: Tfinal (~6 h))
CN(C)/N=N/c1[nH]cnc1C(N)=O,1 ± 0.039,0.863 ± 0.23
Cc1cc2c(cc1S(N)(=O)=O)S(=O)(=O)CCC2,1.02 ± 0.061,0.98 ± 0.043
CC1(C)S[C@@H]2[C@H](NC(=O)[C@H](NC(=O)N3CCNC3=O)c3ccccc3)C(=O)N2[C@H]1C(=O)O,1.14 ± 0.047,1.1 ± 0.028
NC(=O)c1cc[n+](CC2=C(C(=O)O)N3C(=O)[C@@H](NC(=O)[C@@H](c4ccccc4)S(=O)(=O)[O-])[C@H]3SC2)cc1,0.999 ± 0.056,1.05 ± 0.028
CC(C)c1ccc2oc3nc(N)c(C(=O)O)cc3c(=O)c2c1,1.016 ± 0.0075,0.794 ± 0.13
CCCCCCCCCc1ccc(OCCOCCOCCOCCOCCOCCOCCOCCOCCO)cc1,0.99 ± 0.013,1.1 ± 0.048
COC(=O)Nc1nc2cc(C(=O)c3ccccc3)ccc2[nH]1,0.995 ± 0.036,1.03 ± 0.076
CCCCCCc1ccc(O)cc1O.Nc1c2ccccc2nc2ccccc12,0.891 ± 0.014,1.07 ± 0.012
CC(=O)Nc1ccccc1,1 ± 0.046,1.12 ± 0.057
CSc1ccc2c(c1)C(N1CCN(C)CC1)Cc1ccccc1S2 (stereo unspecified),0.949 ± 0.051,0.886 ± 0.094
C[C@H]1COc2c(C3(N)CC3)c(F)cc3c(=O)c(C(=O)O)cn1c23,1.36 ± 0.11,0.00812 ± 0.0004
CC(C(=O)O)c1ccc2c(c1)Cc1cccnc1O2 (stereo unspecified),0.949 ± 0.049,1.01 ± 0.12
C[N+]1(C)[C@@H]2CC[C@H]1C[C@@H](OC(=O)C(O)c1ccccc1)C2 (stereo partly specified),0.968 ± 0.056,1.06 ± 0.025
COC(=O)C1=C(C)NC(C)=C(C(=O)OCCN2CCN(C(c3ccccc3)c3ccccc3)CC2)C1c1cccc([N+](=O)[O-])c1 (stereo unspecified),0.991 ± 0.037,0.829 ± 0.1
CC(C)(C(=O)O)c1ccc(C(O)CCCN2CCC(C(O)(c3ccccc3)c3ccccc3)CC2)cc1 (stereo unspecified),1.06 ± 0.075,1.2 ± 0.059
CN(C)CCCN1c2ccccc2Sc2ccccc21,1.03 ± 0.043,1.05 ± 0.096
NC(Cc1ccc(Cl)cc1)C(=O)O (stereo unspecified),0.99 ± 0.05,0.945 ± 0.1
Cc1cc(C(C)(C)C)c(O)c(C)c1CC1=NCCN1,1 ± 0.044,1.21 ± 0.048
CC1(C)[C@H](C(=O)O)N2C(=O)C[C@H]2S1(=O)=O,0.918 ± 0.03,0.937 ± 0.22
COc1cc2c3cc1Oc1cc(ccc1O)C[C@@H]1c4c(cc(OC)c(O)c4Oc4ccc(cc4)C[C@@H]3N(C)CC2)CC[N+]1(C)C,0.937 ± 0.083,0.976 ± 0.16
Cc1ncc(CO)c(CO)c1O,1.106 ± 0.011,1.03 ± 0.31
COc1cc(C(=O)NCCCCCC(=O)O)cc(OC)c1OC,1.07 ± 0.07,1.11 ± 0.1
CC1=C(C(=O)O)N2C(=O)[C@@H](NC(=O)[C@H](N)C3=CCC=CC3)[C@H]2SC1,1.02 ± 0.06,1.11 ± 0.047
N[C@@H](CCC(=O)N[C@@H](CS)C(=O)NCC(=O)O)C(=O)O,1.1 ± 0.056,0.832 ± 0.11
CC1=C(/C=C/C(C)=C/C=C/C(C)=C/C(=O)O)C(C)(C)CCC1,0.976 ± 0.11,0.943 ± 0.16
NC[C@@H]1CC[C@@H](N)[C@@H](O[C@H]2[C@H](O)[C@@H](O[C@H]3O[C@H](CO)[C@@H](O)[C@H](N)[C@H]3O)[C@H](N)C[C@@H]2N)O1,1.04 ± 0.023,0.976 ± 0.13

Structure (SMILES),normalized intracellular growth (time point: T3 (3 h)),normalized intracellular growth (time point: Tfinal (~6 h))
CC(=O)Oc1ccccc1C(=O)O,1.04 ± 0.035,1 ± 0.13
N=C(N)NS(=O)(=O)c1ccc(N)cc1,0.962 ± 0.042,0.991 ± 0.12
COc1cc2nc(N(C)CCCNC(=O)C3CCCO3)nc(N)c2cc1OC (stereo unspecified),0.981 ± 0.046,1.24 ± 0.12
Clc1ccc(Cn2c(CN3CCCC3)nc3ccccc32)cc1,0.966 ± 0.019,1.1 ± 0.071
CCCCCCCCCCCCCCCC(=O)OC[C@@H](NC(=O)C(Cl)Cl)[C@H](O)c1ccc([N+](=O)[O-])cc1,1.04 ± 0.037,0.822 ± 0.14
N[C@@H]1CONC1=O,0.986 ± 0.043,1.04 ± 0.044
CCCCC(CC)CCC(CC(C)C)OS(=O)(=O)O (stereo unspecified),1.03 ± 0.031,1.1 ± 0.03
O=C(O)COCCN1CCN(C(c2ccccc2)c2ccc(Cl)cc2)CC1 (stereo unspecified),1 ± 0.012,0.918 ± 0.11
O=C1c2ccccc2C(=O)C1c1ccc(Cl)cc1,1 ± 0.04,0.857 ± 0.16
COc1ccc2cc([C@H](C)CO)ccc2c1,0.984 ± 0.03,1.14 ± 0.21
C#C[C@]1(OC(C)=O)CC[C@H]2[C@@H]3CCC4=CC(=NO)CC[C@@H]4[C@H]3CC[C@@]21CC (mixture of isomers),1.04 ± 0.056,0.943 ± 0.18
Clc1ccc(CO/N=C(\Cn2ccnc2)c2ccc(Cl)cc2Cl)c(Cl)c1,0.997 ± 0.045,1.3 ± 0.12
CC(=O)O[C@]1(C(C)=O)CC[C@H]2[C@@H]3C=C(Cl)C4=CC(=O)[C@@H]5C[C@@H]5[C@]4(C)[C@H]3CC[C@@]21C,0.992 ± 0.096,1.14 ± 0.14
Nc1ncnc2c1ncn2[C@@H]1O[C@H](CO)[C@@H](O)[C@H]1O,0.958 ± 0.081,1.05 ± 0.13
Clc1ccc(CSC(Cn2ccnc2)c2ccc(Cl)cc2Cl)cc1 (stereo unspecified),1.03 ± 0.05,1.03 ± 0.14
C[n+]1cc2c3c(ccc2c2ccc4cc5c(cc4c21)OCO5)OCO3,0.702 ± 0.079,0.75 ± 0.03
CN(C)CCN(Cc1ccccc1)c1ccccn1,0.989 ± 0.058,1.02 ± 0.16
C=CC1=C(C)c2cc3[nH]c(cc4nc(cc5[nH]c(cc1n2)c(C)c5CCC(=O)O)C(CCC(=O)O)=C4C)c(C)c3C=C,0.973 ± 0.046,1.03 ± 0.14
CN1C(=O)CC(c2ccccc2)C1=O (stereo unspecified),1.04 ± 0.05,1.07 ± 0.11
CC(=O)O[C@@]12CO[C@@H]1C[C@H](O)[C@@]1(C)C(=O)[C@H](O)C3=C(C)[C@@H](OC(=O)[C@H](O)[C@@H](NC(=O)OC(C)(C)C)c4ccccc4)C[C@@](O)([C@@H](OC(=O)c4ccccc4)[C@H]21)C3(C)C,0.978 ± 0.011,0.862 ± 0.053
COc1cc(O)c(C(=O)c2ccccc2)cc1S(=O)(=O)O,0.99 ± 0.044,1.01 ± 0.11
N[C@@H](Cc1cc(I)c(Oc2cc(I)c(O)c(I)c2)c(I)c1)C(=O)O,0.839 ± 0.077,1.12 ± 0.12
CCCCCCCCCC(=O)N[C@@H](Cc1c[nH]c2ccccc12)C(=O)N[C@@H](CC(N)=O)C(=O)N[C@@H](CC(=O)O)C(=O)N[C@@H]1C(=O)NCC(=O)N[C@@H](CCCN)C(=O)N[C@@H](CC(=O)O)C(=O)N[C@H](C)C(=O)N[C@@H](CC(=O)O)C(=O)NCC(=O)N[C@H](CO)C(=O)N[C@@H]([C@H](C)CC(=O)O)C(=O)N[C@@H](CC(=O)c2ccccc2N)C(=O)O[C@@H]1C [DAPTOMYCIN (5 millimolar/DMSO)],1.01 ± 0.07,0.98 ± 0.21
N=C(N)NC(=O)Cc1c(Cl)cccc1Cl,1.14 ± 0.079,0.853 ± 0.29
CN(C)CC/C=C1/c2ccccc2Sc2ccc(Cl)cc21,0.999 ± 0.073,0.953 ± 0.1
CN(C)CCOC(c1ccccc1)c1ccccc1,0.981 ± 0.018,1.02 ± 0.03

# Retrieved one by one from the entries so far:
Structure (SMILES),normalized intracellular growth (time point: T3 (3 h)),normalized intracellular growth (time point: Tfinal (~6 h))
C=CC1=C(C)c2cc3[nH]c(cc4nc(cc5[nH]c(cc1n2)c(C)c5CCC(=O)O)C(CCC(=O)O)=C4C)c(C)c3C=C,0.973 ± 0.046,1.03 ± 0.14
COc1cc2c3cc1Oc1cc(ccc1O)C[C@@H]1c4c(cc(OC)c(O)c4Oc4ccc(cc4)C[C@@H]3N(C)CC2)CC[N+]1(C)C,0.937 ± 0.083,0.976 ± 0.16
CC(=O)O[C@@]12CO[C@@H]1C[C@H](O)[C@@]1(C)C(=O)[C@H](O)C3=C(C)[C@@H](OC(=O)[C@H](O)[C@@H](NC(=O)OC(C)(C)C)c4ccccc4)C[C@@](O)([C@@H](OC(=O)c4ccccc4)[C@H]21)C3(C)C,0.978 ± 0.011,0.862 ± 0.053
